Measured values reported in US20250339443A1, “METHOD FOR TREATING OR PREVENTING CALCIUM RELEASE-ACTIVATED CALCIUM CHANNEL OR DISCOIDIN DOMAIN RECEPTOR 2 RELATED DISORDERS OR CONDITIONS” (LumiSTAR Biotechnology, Inc., priority 2023, published 2025).
At least one structure is not confirmed: it was looked up by name or label, or the drawing left a doubt.

What was measured:
[1] = system: NRK49F cells; experiment: Collagen gel contraction assay; type: cell-based, rat; details: NRK49F in collagen gel, 10 ng/ml TGF-β1, 10 μM, 3 days, 8 hours after release
Description: (§1) FIG. 2A, FIG. 2B, FIG. 2C, FIG. 2D, FIG. 2E, FIG. 2F, FIG. 2G-1, and FIG. 2G-2 display how WRG-28 and Av suppress TGF-β1-induced fibroblasts activation and the differentiation of pericytes into myofibroblasts. […] Each bar represents the mean #SEM. […] The protein levels of collagen 1a1 and α-SMA were assessed using Western blot analysis under various conditions. […] Each bar represents mean±SEM. […] The images were acquired using a confocal microscope (Olympus, MPE). FIG. 2G-1 and FIG. 2G-2 display the measurement of angles between collagen fibers and the cell membrane, conducted using Image J. At least five different images from each condition were analyzed. Each bar represents mean±SEM. In all graphs, *, **, and *** represent p-value <0.05, 0.01, and 0.001, respectively. ‘ns’ denotes p-value >0.05, indicating no significant difference.
The collagen gel was made by mixing 3 ml rat tail collagen (Corning), 1 ml 5.7×DMEM, 500 μl 2.5% NaHCO3, 1 ml 0.1 M HEPES, 100 μl 0.17 M CaCl2, 100 μl 1 N NaOH, and 4.3 ml culture medium containing 2×10^6 NRK49F cells. 2 ml medium with or without 10 ng/ml TGF-β1 was applied onto gel in each well of 6 well-plate and cells were incubated for 3 days. After that gels were released from the culture plate and the gel area was quantified by Image J. […]

[2] = system: human cardiac fibroblast (HCF); experiment: TGF-β1-induced fibronectin deposition and α-SMA expression in HCF (immunofluorescence); type: cell-based
Description: (§2) Cells were co-treated with various compounds (10 μM) and TGF-β1 for 24 hours. Following this, cell lysates were harvested, and the protein expression was assessed by Western blot analysis. FIG. 3D depicts the examination of TGF-β1-induced fibronectin deposition and α-SMA expression in HCF treated with 10 μM of DMSO, BTP2, WRG-28, or Av through immunofluorescence staining. The images were captured using a confocal microscope, the Olympus FV-1000. FIG. 3E, FIG. 3F, and FIG. 3G illustrate the assessment of CRAC channel activity in HCF, MRC5, and rat HSC-T6. These cells were pretreated with 10 μM of BTP2, WRG-28, or Av for 45 min. The evaluation included measuring the second peak of each calcium wave and the rate of entry. Each bar within the figure represents the mean value derived from 77 to 91 cells for HCF, 31 to 49 cells for MRC5, and 43 to 94 cells for HSC-T6. In all the graphs, *, **, and *** denote p-values of <0.05, 0.01, and 0.001, respectively. […]
Cells cultured on chamber slides were fixed with 4% paraformaldehyde for 10 minutes followed by a permeabilization step by incubating cells in 0.5% Triton X-100 in PBS for 5 minutes. […] The protein expression was detected by incubating cells with specific primary antibodies followed by incubating cells with secondary antibodies against mouse or rabbit IgG conjugated with Alexa-488 or -594 nm (Invitrogen), respectively. […]

[3] = system: human pulmonary fibroblast (MRC5); experiment: TGF-β1-induced activation of human pulmonary fibroblasts (Western blot); type: cell-based; details: MRC5, 10 μM co-treatment, 24 hours
Description: as §2, with “entry.” for “entry. Each bar within the figure represents the mean value derived from 77 to 91 cells for HCF, 31 to 49 cells for MRC5, and 43 to 94 cells for HSC-T6. In all the graphs, *, **, and *** denote p-values of <0.05, 0.01, and 0.001, respectively.”
(§3) Cell lysates were harvested in RIPA buffer (150 mM NaCl, 1 mM EGTA, 50 mM Tris pH 7.4, 10% glycerol, 1% Triton X-100, 1% sodium deoxycholate, 0.1% SDS, and protease inhibitor cocktail) and collected from culture dish with cell scrapers. […] The protein expression levels were assessed by specific primary antibodies, including antibodies against phosphotyrosine (clone 4G10; Millipore), DDR2 (R&D), α-SMA (Sigma), Collagen 1a1 (Boster), E-cadherin (BD Biosciences), SGLT2 (Proteintech), NHE1 (Novus) and β-actin (Clone C4, Millipore), followed by incubating with secondary antibodies conjugated with HRP and detected by ECL kit (Thermo Scientific). […]

[4] = system: THP-1 derived macrophages; experiment: Cytokine secretion in macrophages (ELISA); type: cell-based, human; details: IFN-γ/LPS induction, culture medium
[5] = system: NRK49F cells; experiment: TGF-β1-induced activation of renal fibroblasts (Western blot); type: cell-based, rat; details: 10 μM, 24 hours
Description: as §1, with “In all graphs, *, **, and *** represent p-value <0.05, 0.01, and 0.001, respectively. ‘ns’ denotes p-value >0.05, indicating no significant difference.” left out
as §3

[6] = system: CCL-226 cells; experiment: TGF-β1-induced pericyte-to-myofibroblast activation (Western blot); type: cell-based, mouse; details: CCL-226, 10 μM, 24 hours
Description: as §1, with “In all graphs, *, **, and *** represent p-value <0.05, 0.01, and 0.001, respectively. ‘ns’ denotes p-value >0.05, indicating no significant difference.” left out
as §3

[7] = system: rat hepatic stellate cells (HSC-T6); experiment: TGF-β1-induced activation of rat hepatic stellate cells (Western blot); type: cell-based; details: HSC-T6, 10 μM co-treatment, 24 hours
Description: as §2, with “entry.” for “entry. Each bar within the figure represents the mean value derived from 77 to 91 cells for HCF, 31 to 49 cells for MRC5, and 43 to 94 cells for HSC-T6. In all the graphs, *, **, and *** denote p-values of <0.05, 0.01, and 0.001, respectively.”
as §3

Structure (SMILES): O=C1C(O)=C([C@H]2CC[C@H](c3ccc(Cl)cc3)CC2)C(=O)c2ccccc21 [Av, atovaquone]
- gel shrinkage (relative gel area) upon TGF-β1 stimulation [1]: markedly reduced
- TGF-β1-increased cell spreading area ([2]; 10 μM co-treatment): mitigated
- expression of fibronectin and α-SMA induced by TGF-β1 ([2]; 10 μM, immunofluorescence): suppressed
- upregulation of α-SMA induced by TGF-β1 [3]: suppressed
- secretion of IL-2 in macrophages [4]: minor reduction
- secretion of IL-6 in macrophages [4]: minor reduction
- secretion of TNF-β in macrophages [4]: minor reduction
- TGF-β1-induced upregulation of collagen 1a1 and α-SMA [5]: significantly suppressed
- TGF-β1-induced upregulation of collagen 1a1 and α-SMA in pericyte [6]: significantly suppressed
- upregulation of α-SMA induced by TGF-β1 [7]: suppressed
